Reference: patent US20260284208A1, “SYSTEM” (Oxford University Innovation Limited, priority 2023, published 2026)
This continues a long series; more values of the same kind are listed elsewhere.

Tested on: library of 8,380 IKZF3 degrons (ZF-eGFP/mCherry reporter) in Jurkat cells
Test: Pooled library screen (FACS, NGS, limma voom LogFC of positive vs negative read counts)
Format: cell-based, human
Procedure: A library of 8,380 IKZF3 degrons was cloned into pLVX-Sprout to create the eGFP/mCherry protein degradation reporter plasmid pool. A lentivirus pool was then generated using the Lenti-X lentiviral vector production method.
Jurkat cells were transduced at a multiplicity of infection of <0.3 with the lentivirus vector library in order to maximise the number of cells with a single integration. Transductions were carried out in 6 well TC-treated cell culture dishes (Falcon) with 3×10^6 cells per well. Cells were incubated for 2 days at 37° C. and 5% CO2 before the supernatant was removed and replaced with fresh media. 6 days post-transduction, mCherry+ cells were isolated via FACS using the FACS Aria Fusion (BD) in a buffer containing PBS (Gibco), 2 mM EDTA (Gibco), 25 mM HEPES (Sigma) and 1% BSA (Sigma). 8 days later, cells were treated with DMSO or a thalidomide analog for 18 hours at 37° C. and 5% CO2. mCherry+GFPlow and NOT(mCherry+GFPlow) cells were sorted by FACS using the FACS Aria Fusion (BD). DMSO treated cells were used to set the mCherry+GFPlow gate and dead cells were excluded from sorting by staining cells with 1 μg/mL DAPI (ThermoFisher). gDNA was isolated using the Maxwell RSC 48 (Promega). gDNA from cells that were unsorted and untreated were also isolated to determine the library representation on the day of compound treatment. Throughout the screen >600× coverage of the library was maintained. 3 biological replicates were carried out with a new transduction taking place each time.
A two-step PCR was used where the first PCR (PCR1) amplified the integrated degron sequence from gDNA and the second PCR (PCR2) added Illumina adaptors and barcodes to permit multiplexing. See Supp F for PCR1 and PCR2 primers. Q5 Hot Start High-Fidelity 2× Master Mix (New England Biolabs) was used for both PCRs. Sufficient gDNA was amplified in PCR1 in order to maintain >600× coverage and amplicons were purified using solid phase reversible immobilization (SPRI) beads (Beckman Coulter). Purified PCR1 products were analysed on the Tapestation 4200 (Agilent) to confirm purity prior to proceeding to PCR2. Sufficient PCR1 product was amplified in PCR2 in order to maintain >600× coverage and amplicons were run on a 2% agarose TAE gel. Target bands were excised and purified using the NucleoSpin Gel and PCR Clean-up Kit (Machery Nagel). Amplicons were analysed on the Tapestation 4200 and quantified using Qubit dsDNA HS kit (ThermoFisher). PCR products were pooled and sequenced as paired-reads on the NovaSeq (Illumina) using a SP2 200 cycles kit (Illumina).
Count distributions, percentage of read mapping, library coverage and replicate correlation per sample were assessed for QC purposes.
To carry out the library screen, we used the same plasmid construct as in our earlier flow cytometry assays, but pooling all 8,380 mutants together into one Jurkat population, ensuring a copy number of one plasmid per cell (FIG. 4B). […] These GFP-negative cells were then separated from the remaining GFP-positive population using fluorescence activated cell sorting (FACS). These two populations were then sequenced and the relative abundance of every mutant in both populations compared to provide a log FC value for each mutant sequence. This value indicated how frequently a sequence is observed in the GFP-negative population relative to the GFP-positive population, and therefore how effective a degron it is for that particular IMID compound.

Compound: O=C1CCC(N2C(=O)c3ccc(N4CCOCC4)cc3C2=O)C(=O)N1 (stereo not drawn) [B03]
- B03_logFC (Degron-ID 0, SEQ ID NO 4402, 46F_47A_49D_50I_52G_53A_54A_55F_67L_): 2.037
- B03_logFC (Degron-ID 60, SEQ ID NO 3787, 46F_47A_49E_50I_52G_53A_54A_55F_67L_): 3.03
- B03_logFC (Degron-ID 74, SEQ ID NO 3869, 46F_47A_49E_50I_52G_53A_54R_55F_67L): 2.894
- B03_logFC (Degron-ID 75, SEQ ID NO 3923, 46F_47A_49E_50I_52G_53A_54S_55F_67L): 2.802
- B03_logFC (Degron-ID 76, SEQ ID NO 4395, 46F_47A_49E_50I_52G_53A_54T_55F_67L_): 2.045
- B03_logFC (Degron-ID 100, SEQ ID NO 3808, 46F_47A_49E_50V_52G_53A_54A_55F_67L_): 2.993
- B03_logFC (Degron-ID 101, SEQ ID NO 4325, 46F_47A_49E_50V_52G_53A_54C_55F_67L_): 2.16
- B03_logFC (Degron-ID 108, SEQ ID NO 4421, 46F_47A_49E_50V_52G_53A_54K_55F_67L_): 2.017
- B03_logFC (Degron-ID 113, SEQ ID NO 4388, 46F_47A_49E_50V_52G_53A_54Q_55F_67L_): 2.057
- B03_logFC (Degron-ID 114, SEQ ID NO 3785, 46F_47A_49E_50V_52G_53A_54R_55F_67L_): 3.033
- B03_logFC (Degron-ID 116, SEQ ID NO 4406, 46F_47A_49E_50V_52G_53A_54T_55F_67L_): 2.033
- B03_logFC (Degron-ID 117, SEQ ID NO 4403, 46F_47A_49E_50V_52G_53A_54V_55F_67L_): 2.035
- B03_logFC (Degron-ID 132, SEQ ID NO 4276, 46F_47A_49N_50I_52G_53A_54P_55F_67L_): 2.252
- B03_logFC (Degron-ID 135, SEQ ID NO 4410, 46F_47A_49N_50I_52G_53A_54S_55F_67L_): 2.031
- B03_logFC (Degron-ID 137, SEQ ID NO 4389, 46F_47A_49N_50I_52G_53A_54V_55F_67L_): 2.054
- B03_logFC (Degron-ID 180, SEQ ID NO 3842, 46F_47A_49P_50I_52G_53A_54A_55F_67L_): 2.934
- B03_logFC (Degron-ID 181, SEQ ID NO 4368, 46F_47A_49P_50I_52G_53A_54C_55F_67L_): 2.089
- B03_logFC (Degron-ID 192, SEQ ID NO 3786, 46F_47A_49P_50I_52G_53A_54P_55F_67L_): 3.032
- B03_logFC (Degron-ID 220, SEQ ID NO 3886, 46F_47A_49P_50V_52G_53A_54A_55F_67L): 2.873
- B03_logFC (Degron-ID 234, SEQ ID NO 4260, 46F_47A_49P_50V_52G_53A_54R_55F_67L_): 2.277
- B03_logFC (Degron-ID 235, SEQ ID NO 4335, 46F_47A_49P_50V_52G_53A_54S_55F_67L_): 2.15
- B03_logFC (Degron-ID 240, SEQ ID NO 4323, 46F_47C_49D_50I_52G_53A_54A_55F_67L_): 2.171
- B03_logFC (Degron-ID 252, SEQ ID NO 4304, 46F_47C_49D_50I_52G_53A_54P_55F_67L_): 2.215
- B03_logFC (Degron-ID 254, SEQ ID NO 4293, 46F_47C_49D_50I_52G_53A_54R_55F_67L_): 2.233
- B03_logFC (Degron-ID 300, SEQ ID NO 3764, 46F_47C_49E_50I_52G_53A_54A_55F_67L_): 3.101
- B03_logFC (Degron-ID 301, SEQ ID NO 4383, 46F_47C_49E_50I_52G_53A_54C_55F_67L_): 2.063
- B03_logFC (Degron-ID 305, SEQ ID NO 4365, 46F_47C_49E_50I_52G_53A_54G_55F_67L_): 2.093
- B03_logFC (Degron-ID 312, SEQ ID NO 3814, 46F_47C_49E_50I_52G_53A_54P_55F_67L_): 2.986
- B03_logFC (Degron-ID 314, SEQ ID NO 3798, 46F_47C_49E_50I_52G_53A_54R_55F_67L_): 3.011
- B03_logFC (Degron-ID 316, SEQ ID NO 4277, 46F_47C_49E_50I_52G_53A_54T_55F_67L_): 2.25
- B03_logFC (Degron-ID 340, SEQ ID NO 3829, 46F_47C_49E_50V_52G_53A_54A_55F_67L_): 2.957
- B03_logFC (Degron-ID 341, SEQ ID NO 4265, 46F_47C_49E_50V_52G_53A_54C_55F_67L_): 2.267
- B03_logFC (Degron-ID 352, SEQ ID NO 4369, 46F_47C_49E_50V_52G_53A_54P_55F_67L_): 2.088
- B03_logFC (Degron-ID 353, SEQ ID NO 4294, 46F_47C_49E_50V_52G_53A_54Q_55F_67L_): 2.233
- B03_logFC (Degron-ID 354, SEQ ID NO 3795, 46F_47C_49E_50V_52G_53A_54R_55F_67L_): 3.022
- B03_logFC (Degron-ID 355, SEQ ID NO 3899, 46F_47C_49E_50V_52G_53A_54S_55F_67L): 2.852
- B03_logFC (Degron-ID 356, SEQ ID NO 4354, 46F_47C_49E_50V_52G_53A_54T_55F_67L_): 2.117
- B03_logFC (Degron-ID 420, SEQ ID NO 3905, 46F_47C_49P_50I_52G_53A_54A_55F_67L): 2.843
- B03_logFC (Degron-ID 421, SEQ ID NO 4298, 46F_47C_49P_50I_52G_53A_54C_55F_67L_): 2.225
- B03_logFC (Degron-ID 428, SEQ ID NO 4391, 46F_47C_49P_50I_52G_53A_54K_55F_67L_): 2.051
- B03_logFC (Degron-ID 431, SEQ ID NO 4330, 46F_47C_49P_50I_52G_53A_54N_55F_67L_): 2.156
- B03_logFC (Degron-ID 432, SEQ ID NO 3723, 46F_47C_49P_50I_52G_53A_54P_55F_67L_): 3.163
